About 3,700 (7%) of roughly 53,000 sequences were called active.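 The calls were made as follows: active = gene knockdowns whose robust z-score for IL-1 alpha signal is at least 2 or at most -2, so actives lie on both sides; inactive = the rest.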 Some of the results follow.

The nature of this test: Components of the Cytosolic LPS Sensing Pathway: Gene Identification via Genome-wide siRNA Screen.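 Also: robust z of the log signal after scaling to non-targeting control siRNA wells of the plate.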 Conditions: RAW264.7 macrophages, IL-1a HTRF, actives lie on both sides, screened at 100 nM (by protocol), cells primed 5 h with Pam3CSK4 first. In outline:
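Read-out: IL-1a HTRF on supernatant, divided by plate negative-control median ×100, log-transformed and converted to robust z-score. Cells were RAW264.7 given 100 nM siRNA, Pam3CSK4-primed 5 hours, then LipidA-transfected 24 hour.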
Background: Time-resolved FRET reads energy transfer from a long-lived donor to a nearby acceptor.
Regarding GGAGAAUGAGAUUGAGUGUTT against Rnf144a, the z-score is inactive: 0.316.
On to GGUCUGAGCUUCCAAUAACTT against Reep5, for which the z-score is inactive: 0.183.
Take CCCACAAUCUCGACAGUCUTT against Simc1: the z-score is inactive: 1.59.
With GGGAACUAAGCAUUUUGAATT against Sec23a, the z-score was inactive: 1.7.
As for GGUGAUGUCCUAUUUCAAATT against Erp27, the z-score is inactive: 0.302.
In the case of “GGAGCUUAUAAGAAAUGGGTT against D5Ertd579e”, the z-score was inactive: 0.225.
With GCUUUGUUGCCCUACUACCTT against Pacrg, the z-score was active: -2.26.
Next, GGCCACAUGCUUAAAGUGCTT against Slc7a9: inactive: -0.11; GCGACAGAAGUGUCAUAAUTT against Phax: inactive: 0.364.
For the sequence GCAUCAUGAACUCCUUUGUTT against H2bc1, the z-score is active: -2.43.
In the case of CCCUGAUACUCAAUGAAGATT against BC049762, the z-score is inactive: -1.85.
Turning to CCACCUAUUACAUGAUCUUTT against Rnf32, the z-score is inactive: -0.23.
Take GUGGUUUAACAUGAAGUCATT against Zfp58: the z-score was inactive: -1.08.
Under GGAUGGUUUUCAUUUGCUUTT against Cd300ld stands inactive: -0.606; under GGUGUUUGCUAAGGUGCUCTT against Ampd3, inactive: -0.0493; under CCAGUUGUGUGAAUUAUGUTT against Psmd2, inactive: -2.
CCUGGGACCAACACAAAAUTT against Ssmem1: the z-score is inactive: -0.936.
GGAGCUCUUCAUCCUCAACTT against Prr5: the z-score was inactive: -1.8.
Next, GGGAGAGAGUUGGCUCUGATT against Prg3: inactive: -0.184; CGUUGUAUUUGGAAAAGUCTT against Ppic: inactive: -0.239; GGAAGUGUUUGAUGUCUUATT against Stk4: inactive: 1.03.
As to GGACAGUGGCACAAUGACATT against Dcbld1, the z-score is inactive: 0.225.
Next, GCGACAGCUUUGCUAAGAUTT against Ndfip2: inactive: 0.553.
For the sequence UGACUUUUGGACACGAGGCTT against Trim15, the z-score is inactive: -0.159.
With CGGCUUAGUAAAUGUGACUTT against Cct8l1, the z-score is inactive: -0.828.
On to CCACACGGUCUUAGAUGAGTT against Cdkl3, for which the z-score is inactive: 1.08.
Under CCUAUGCAUCCCUGACUACTT against Tmem126b stands active: 5.07; under GGAUCCGUGCAGACAUUGUTT against Gstm1, inactive: 0.943; under GCCCUAAGGAAGUACAGAGTT against Rgs19, inactive: 1.07.
Consider GGGACAAAGGUUGAACAAGTT against Zfp36l1, for which the z-score was inactive: 0.207.
Regarding CCUUAUGAAUCCCGAGUACTT against Bmp6, the z-score is inactive: -0.0506.
Turning to GGGCUUCACUCCACUGCAUTT against Ankrd52, the z-score is inactive: 0.782.
Next, GGAAGAGACUUAUAAUGGUTT against Olfr1214: inactive: 1.28.
Under “CCUGUUUCUUUCAUGCAGUTT against 2310022A10Rik” stands inactive: 0.337; under CCGAGCUGAGAUAUCCCAATT against Uba1y, inactive: -0.908; under GGGCUGACUUCCUAUGACCTT against Adra2c, active: 2.14.
Next, GGUCUAGGUAGGAGAACUUTT against Elf4: inactive: 0.324.
As to UUACUGGUUGCUGUUGUGGTT against Alyref, the z-score is inactive: 1.35.
GACAGGCGGCCUUCCGAGATT against Hyi: the z-score was inactive: -0.479.
GGGCUGACCAUAACUUGAUTT against Unc5d: the z-score was inactive: -0.241.
Under GGAUCAAGAAUCCAAGGUUTT against Nek6 stands inactive: -1.12.
Consider GGUACGAGCUGUUCGCCAUTT against Tbc1d31, for which the z-score was inactive: 1.51.
Next, GGAAUGCUAUCAGAGAAGATT against Zmym5: inactive: -0.0365.
GGCUCAGUUUAAGAAAACATT against Pkp2: the z-score is inactive: 0.817.
Turning to GGCUUGUCAUGAAUUUUUATT against Ankrd52, the z-score is inactive: -0.896.
Take GCUAGGUGGGCAACUGUAUTT against Lpar3: the z-score was active: 2.12.
Consider CCAAAACAACCACAAGUAGTT against Zfp385c, for which the z-score was active: -2.96.
Next, CCUGUCGCCACGUGGAAUATT against Cnih4: inactive: 0.00879; CCUAGAAAUCAGUGAAUUUTT against Ralgapa1: inactive: 0.709; GGGUCUAGAGUGCAUCUUCTT against Krt78: inactive: 0.418.
Consider CCCUAAAACCAAAUGUACATT against Tet2, for which the z-score is inactive: 1.7.
Consider GCAUAGUAAUCUCCGAAUATT against Zfp933, for which the z-score was inactive: 1.44.
Take GCGGUUUCUUACCAAUAACTT against Cyp1a2: the z-score was inactive: 0.984.
Consider GGGACCAGAACAAAGUGGUTT against Olfr487, for which the z-score is inactive: 0.474.
Under GGAUGGCAGACAUUAUGUCTT against Nek1 stands inactive: 0.367.
For GGAGUAUCGUUUAUUCAUUTT against Slc2a2, the z-score is inactive: 0.161.
Consider GCUGCUGGCAACAAAUAUGTT against Tubb2a, for which the z-score is inactive: 0.826.
Take GGUUUGGCAUCUAAAGAGCTT against Olfr1412: the z-score was active: -2.42.
On to CGAUUUCAACCGUGAAUCUTT against Tcf12, for which the z-score was inactive: 0.554.
In the case of GGCAAAAGCAGACAUUGAATT against Trub1, the z-score was inactive: 1.23.
In the case of GCUUUGACUACAUCUGAGGTT against Telo2, the z-score is inactive: -1.41.
CCAGAAGUGAUGGUUCAGUTT against Selenoh: the z-score is inactive: 0.577.
With “GGAAGAAAUCAAGGUAUCATT against 9330155M09Rik”, the z-score is inactive: -1.13.
Under GGCAAUCCCACAUCCUCGATT against Ergic2 stands inactive: -1.45.
As to GGCCAUUACGAUGAAGAUUTT against Zpld1, the z-score was inactive: -1.92.
As to GGACAAAGAAAACAGCUGUTT against Klrb1f, the z-score was inactive: -0.718.
Next, CCCAAGUGAGUAAUAUACUTT against Abt1: inactive: -0.21; GCUGCCUAUAUUCAUUUAATT against Zhx3: inactive: 0.745.
Turning to GGCCACACAGAUUAUCUUGTT against Vmn1r24, the z-score was inactive: -0.356.
Take CGCAGUCAAAUUUGAAAGUTT against Car5b: the z-score was inactive: 0.775.
For the sequence GGUAAAGAAAUGAGGACCGTT against Tas2r130, the z-score was inactive: -0.0477.
GGAUCCUGCCUUAAGUCAATT against Gadd45a: the z-score is inactive: 0.92.
Turning to GGUGGUCUAUUUCACCACGTT against Slc6a20b, the z-score was inactive: -0.588.
Take GCUCGUUUUCUAUUGAAGUTT against Babam2: the z-score was inactive: 0.672.
Next, GCAUAGUCUUGUUAACCAGTT against Poldip3: inactive: -0.689; GCCUUUUCAAUCCUAUGUUTT against Olfr441: inactive: -0.889; GGAACAGUCCUACUGAUAUTT against Cdkn1a: inactive: -0.271.
For the sequence GGAUGUACUAGCUGAGAUUTT against Cpne9, the z-score is inactive: 0.409.
For GGUUUUAACAUGAGCAGCCTT against Ofcc1, the z-score was inactive: -0.369.
Next, GGAGAUCAGUUAACCCUACTT against Crisp2: inactive: -0.663; GGAAAAGAGAGAAAAUGUUTT against Ubn2: inactive: -0.575.
Turning to GGGAAUCAUUAAAUAGGAUTT against Arhgap26, the z-score was inactive: -0.163.
In the case of GGGAAGUUUCGCUACCUUGTT against Kcnk18, the z-score is inactive: 0.44.
With GGGUCAAGACAAAUCUUCCTT against Snx3, the z-score is inactive: 0.778.
Consider GGCAAAAAUCAUUGUCAUUTT against Gk5, for which the z-score was inactive: -1.6.
CGCGCUAAAGGAGAAGUUUTT against Wnt4: the z-score was inactive: 0.995.
Next, GGUUCAUGAUUUUUCAAGCTT against Rtl6: inactive: -0.319; GGAAGUGGAAAUGAGGACATT against Tbc1d9b: inactive: 0.122.
With GGACAGAAUGGACCUCUUCTT against Ube2o, the z-score is inactive: -0.0943.
On to GGCACUGUUGUGGCUGAAATT against Coro1a, for which the z-score is inactive: 1.47.
For GGAGACAAGAACUACAUUATT against Actn3, the z-score was inactive: 0.747.
Take GCUUACUGUCCCUUAAGUUTT against Msantd1: the z-score was active: 2.45.
For GGCCAUCAGAUAGUUUAAUTT against AW551984, the z-score was inactive: 0.458.
On to GGGUAGUAGCCUUCUUAUCTT against Olfr1168, for which the z-score is inactive: -0.414.
Next, GGCAAUAAUAAAGUCCAUCTT against Letm2: inactive: -0.26.
Under CGUGAUGUGGUAUUGGAACTT against Ampd2 stands inactive: 0.0258.
Regarding GAACUUCUUCUGGAAAACCTT against Cort, the z-score was inactive: -0.149.
For GGCUAAGGAAAUUUUAACGTT against Ppp2cb, the z-score was inactive: -1.18.
CCUUCAAAGUAACUCUUAGTT against Zfp697: the z-score was inactive: 1.22.
Take GGCGUGCUCUGACACAAAATT against Rnf227: the z-score is inactive: 0.39.
Next, CCAUGAAAAGUGUGAAUGCTT against Fap: inactive: -0.276.
In the case of CCUGUCAGUUAACAUUUGATT against Acadsb, the z-score was inactive: -0.759.
On to GCUAUAGGAACCUUCAGAGTT against Hbegf, for which the z-score was inactive: 0.918.
GGGCUGUGAGCUCUGUUCATT against Rspo1: the z-score was inactive: 0.188.
For GGGUUUUAUCAGCUAAAAATT against Plppr4, the z-score was active: 2.29.
In the case of GGGAAGAGUCUUGUUUAAATT against Nectin3, the z-score was inactive: -0.273.
Turning to GGGAACAAAUGUUUCAUUGTT against Mfap3, the z-score was inactive: 1.14.

For the origin of these results see PubChem BioAssay AID1508600 (Functional Genomics Laboratory (NCATS/FGL), 2020).
